Source: patent publication US9399016B2 (UCL BUSINESS PLC, priority 2006, dated 2016)

Assay: peptide made by a vendor (peptide synthesis; Fmoc-Gly preloaded NovaSyn TGT resin or Fmoc-Gly-2-Cl-Trt-resin; HBTU (in DMF) and DIPEA (in NMP))
Conditions: whole synthesis, reverse phase HPLC, scale of the general procedure 20 μmol

Substance	final HPLC purity
(K)16GACYGLPHKFCG	85%
(K)16RVRRGACYGLPHKFCG	96%
